From paper PMC7241524
Results are given in words; binding and its absence hold for the method and conditions named. In cells and extracts the contact can be indirect.

By UniProt entry, the sequences of proteins in these tests, tags left out. Residues count along the entry.
UniProt P46531, residues 19-2555: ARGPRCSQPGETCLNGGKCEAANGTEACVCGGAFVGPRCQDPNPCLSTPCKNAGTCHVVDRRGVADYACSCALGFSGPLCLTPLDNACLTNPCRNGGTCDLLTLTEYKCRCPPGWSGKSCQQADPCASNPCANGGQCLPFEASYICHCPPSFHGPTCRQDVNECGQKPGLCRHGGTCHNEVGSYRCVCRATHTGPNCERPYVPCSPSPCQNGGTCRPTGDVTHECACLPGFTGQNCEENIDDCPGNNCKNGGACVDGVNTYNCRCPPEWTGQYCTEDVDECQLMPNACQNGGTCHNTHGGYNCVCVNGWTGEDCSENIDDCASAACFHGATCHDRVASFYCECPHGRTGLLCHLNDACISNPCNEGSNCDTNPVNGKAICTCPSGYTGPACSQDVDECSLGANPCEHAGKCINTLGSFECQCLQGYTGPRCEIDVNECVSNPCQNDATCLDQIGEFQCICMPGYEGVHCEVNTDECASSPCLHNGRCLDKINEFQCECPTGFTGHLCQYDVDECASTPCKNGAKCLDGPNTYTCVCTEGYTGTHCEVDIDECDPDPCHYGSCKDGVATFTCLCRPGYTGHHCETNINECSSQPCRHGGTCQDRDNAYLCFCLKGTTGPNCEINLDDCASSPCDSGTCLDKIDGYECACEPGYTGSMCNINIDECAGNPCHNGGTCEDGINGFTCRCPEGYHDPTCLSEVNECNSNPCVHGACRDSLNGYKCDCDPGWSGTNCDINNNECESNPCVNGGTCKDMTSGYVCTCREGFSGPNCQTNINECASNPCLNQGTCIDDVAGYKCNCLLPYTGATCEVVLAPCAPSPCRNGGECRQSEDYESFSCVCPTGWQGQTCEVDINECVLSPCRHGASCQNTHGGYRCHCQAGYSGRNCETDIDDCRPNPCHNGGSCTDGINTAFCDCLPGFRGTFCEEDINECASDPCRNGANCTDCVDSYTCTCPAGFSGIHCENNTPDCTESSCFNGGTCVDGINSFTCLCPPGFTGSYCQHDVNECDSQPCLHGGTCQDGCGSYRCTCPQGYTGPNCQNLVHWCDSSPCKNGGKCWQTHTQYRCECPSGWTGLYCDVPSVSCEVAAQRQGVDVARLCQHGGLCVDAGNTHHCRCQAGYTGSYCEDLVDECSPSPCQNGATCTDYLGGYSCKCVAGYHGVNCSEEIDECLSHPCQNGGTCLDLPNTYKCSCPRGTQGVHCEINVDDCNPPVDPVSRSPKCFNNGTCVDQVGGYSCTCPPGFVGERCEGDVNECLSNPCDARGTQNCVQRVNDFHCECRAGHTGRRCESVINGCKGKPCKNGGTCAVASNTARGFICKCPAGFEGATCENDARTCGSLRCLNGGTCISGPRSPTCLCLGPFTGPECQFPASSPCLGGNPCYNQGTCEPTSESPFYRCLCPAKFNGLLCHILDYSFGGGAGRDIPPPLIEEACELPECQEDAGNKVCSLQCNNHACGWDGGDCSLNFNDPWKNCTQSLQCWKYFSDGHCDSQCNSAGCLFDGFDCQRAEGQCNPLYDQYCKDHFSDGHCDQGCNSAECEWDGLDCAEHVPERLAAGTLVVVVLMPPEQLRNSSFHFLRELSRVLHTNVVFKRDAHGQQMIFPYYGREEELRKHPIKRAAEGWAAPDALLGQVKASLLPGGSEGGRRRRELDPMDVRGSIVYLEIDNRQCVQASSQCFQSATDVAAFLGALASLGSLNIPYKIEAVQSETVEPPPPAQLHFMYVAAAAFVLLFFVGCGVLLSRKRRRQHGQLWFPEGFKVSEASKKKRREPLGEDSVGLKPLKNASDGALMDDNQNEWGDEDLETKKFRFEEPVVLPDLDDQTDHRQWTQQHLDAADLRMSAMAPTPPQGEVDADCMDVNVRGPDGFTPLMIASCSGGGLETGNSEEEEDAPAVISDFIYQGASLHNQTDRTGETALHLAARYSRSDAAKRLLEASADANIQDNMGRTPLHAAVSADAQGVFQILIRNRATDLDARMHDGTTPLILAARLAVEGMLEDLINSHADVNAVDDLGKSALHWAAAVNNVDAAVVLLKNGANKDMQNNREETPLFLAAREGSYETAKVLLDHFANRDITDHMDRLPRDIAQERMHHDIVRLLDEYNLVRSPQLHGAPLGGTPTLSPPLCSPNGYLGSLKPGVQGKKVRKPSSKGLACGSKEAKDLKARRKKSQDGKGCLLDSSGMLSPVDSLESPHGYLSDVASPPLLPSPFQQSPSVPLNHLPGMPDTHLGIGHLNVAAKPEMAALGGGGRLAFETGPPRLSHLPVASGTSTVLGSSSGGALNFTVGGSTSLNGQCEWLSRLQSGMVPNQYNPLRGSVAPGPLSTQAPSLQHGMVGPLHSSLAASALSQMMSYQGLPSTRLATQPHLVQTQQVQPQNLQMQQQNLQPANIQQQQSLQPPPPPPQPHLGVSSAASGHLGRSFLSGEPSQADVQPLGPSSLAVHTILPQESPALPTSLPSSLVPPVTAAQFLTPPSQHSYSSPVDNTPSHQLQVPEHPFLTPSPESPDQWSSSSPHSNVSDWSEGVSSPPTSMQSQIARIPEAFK

Biological target: T1, IL-22R1 (human (endogenous in HK-2)) (UniProt Q8N6P7)
T1 sequence: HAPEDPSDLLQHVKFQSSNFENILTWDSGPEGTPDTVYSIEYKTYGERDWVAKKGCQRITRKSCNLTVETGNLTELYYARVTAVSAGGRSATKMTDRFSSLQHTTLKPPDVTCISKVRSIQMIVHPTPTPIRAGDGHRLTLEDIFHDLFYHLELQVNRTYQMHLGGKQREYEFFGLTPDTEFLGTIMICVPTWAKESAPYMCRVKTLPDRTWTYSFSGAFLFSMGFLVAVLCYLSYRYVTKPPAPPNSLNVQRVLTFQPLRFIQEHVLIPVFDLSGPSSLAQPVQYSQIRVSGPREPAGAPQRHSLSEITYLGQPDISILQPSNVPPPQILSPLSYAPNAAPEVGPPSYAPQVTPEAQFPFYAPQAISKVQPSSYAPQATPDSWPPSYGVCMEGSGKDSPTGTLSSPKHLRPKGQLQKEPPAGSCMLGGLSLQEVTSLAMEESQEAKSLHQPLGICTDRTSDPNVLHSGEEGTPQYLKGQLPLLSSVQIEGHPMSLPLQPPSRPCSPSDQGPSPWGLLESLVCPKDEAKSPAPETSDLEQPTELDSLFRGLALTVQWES
Experiment: co-IP; HK-2 cells lysed with 0.5% NP40 lysis buffer; lysates immunoprecipitated with anti-IL-22R1 antibody, blotted with anti-Notch1 or anti-IL-22R1 antibody

- binding: no binding
Substance: Notch1 (from UniProt P46531 19-2555) (receptor)
